Laboratory results: PubChem BioAssay AID1508597 (Cure First, 2020)

Aim: 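Survival screen with siRNA in ovarian cancer cells derived from patients, with or without rucaparib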 (primary screen)
System: human ovarian carcinoma lines grown from tumours: OCI-P5x (papillary serous) and OCI-C5x (clear cell)
Knock-down reagent: siRNA pool against human genes, 1.25 pmol siRNA per well
Timing: 72 h or 96 h, depending on the cell culture
Challenge: rucaparib 20 µM (about IC30) or vehicle, present until read-out
Rucaparib or vehicle: Rucaparib
Cell line: OCI-P5x (serous)
Detection: 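ATP luminescence measured at 72 or 96 h according to the culture, then normalised and expressed as percent viability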
Reading the numbers: viability, normalised: higher = more viable cells remaining
Active means: 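Active when normalised viability falls below 80 percent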
Meaning of the calls: active = viability under 80%; inactive = viability 80% or more
Shown is a random part of the about 2,100 reagents, in one setting of the screen. 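Calls flag viability under 80% in either arm, not effects specific to rucaparib; the reference for percent is not stated.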 A number with no mark means an inactive call. Some reagents were tested in more than one well and are listed for each. Not given: the 100% reference.

| Target gene | technical replicate | viability, normalised (%) |
| --- | --- | --- |
| JUN | 1 | 70.6 (active) |
| JUN | 2 | 65.2 (active) |
| JUN | 3 | 63 (active) |
| GPX1 | 1 | 50.9 (active) |
| GPX1 | 2 | 81.2 |
| GPX1 | 3 | 58.8 (active) |
| COPS3 | 1 | 69.1 (active) |
| COPS3 | 2 | 65 (active) |
| COPS3 | 3 | 61.6 (active) |
| STK36 | 1 | 106 |
| STK36 | 2 | 89.4 |
| STK36 | 3 | 106 |
| HM13 | 1 | 76.7 (active) |
| HM13 | 2 | 60.2 (active) |
| HM13 | 3 | 80 |
| NR3C1 | 1 | 20.9 (active) |
| NR3C1 | 2 | 27.7 (active) |
| NR3C1 | 3 | 23.4 (active) |
| AK3 | 1 | 49.5 (active) |
| AK3 | 2 | 61.3 (active) |
| AK3 | 3 | 61.2 (active) |
| NRBP2 | 1 | 54.7 (active) |
| NRBP2 | 2 | 78.2 (active) |
| NRBP2 | 3 | 77.2 (active) |
| NME8 | 1 | 57.1 (active) |
| NME8 | 1 | 85.4 |
| NME8 | 2 | 59.5 (active) |
| NME8 | 2 | 65.2 (active) |
| NME8 | 3 | 51.7 (active) |
| NME8 | 3 | 61.2 (active) |
| CYLD | 1 | 67.7 (active) |
| CYLD | 2 | 86.2 |
| CYLD | 3 | 66.9 (active) |
| PRKCG | 1 | 87.2 |
| PRKCG | 2 | 99.8 |
| PRKCG | 3 | 89.2 |
| DHX16 | 1 | 55.3 (active) |
| DHX16 | 2 | 42.7 (active) |
| DHX16 | 3 | 61.1 (active) |
| RPS6KC1 | 1 | 83.4 |
| RPS6KC1 | 2 | 66 (active) |
| RPS6KC1 | 3 | 83.3 |
| HSPB8 | 1 | 115 |
| HSPB8 | 2 | 119 |
| HSPB8 | 3 | 119 |
| CILK1 | 1 | 80.4 |
| CILK1 | 2 | 53.2 (active) |
| CILK1 | 3 | 85.1 |
| NAALADL1 | 1 | 83.2 |
| NAALADL1 | 2 | 78.8 (active) |
| NAALADL1 | 3 | 74.1 (active) |
| MTRF1L | 1 | 50.5 (active) |
| MTRF1L | 2 | 44.3 (active) |
| MTRF1L | 3 | 48.5 (active) |
| POLL | 1 | 87.8 |
| POLL | 2 | 57.9 (active) |
| POLL | 3 | 62.7 (active) |

Taken from above:
For “viability, normalised (%)”, DHX16, technical replicate 2 is entered as 42.7 (active)
Under “viability, normalised (%)”, HM13, technical replicate 1 shows 76.7 (active)
NRBP2, technical replicate 3, viability, normalised (%): 77.2 (active)
JUN, technical replicate 1, viability, normalised (%) = 70.6 (active)
Value for RPS6KC1, technical replicate 2 under “viability, normalised (%)”: 66 (active)
Under “viability, normalised (%)”, GPX1, technical replicate 1 is entered as 50.9 (active)
